Source: US20130011479A1, “DOUBLE-LAYER PHARMACEUTICAL FORMULATIONS CONTAINING OPIOID AGONISTS AND ANTAGONISTS” (L. MOLTENI & C. DEI FRATELLI ALITTI SOCIETA' DI ESERCIZIO …, priority 2010, published 2013)

Assay: Intrathecal screening of patients treated with opioids: adverse events / side-effects monitored at several time points
Assay type: in vivo
Parameters: key: (0) = none; (1) = mild; (2) = moderate; (3) = intense; (4) = severe
Details: without naltrexone
Experimental: A dose of opioids was administered with or without naltrexone and the adverse events or side-effects and anti-nociceptive effects were monitored at several time points.
In particular, patients with chronic (non-oncological) spinal pain and oncological patients in the non-terminal phase with evidence of side effects after minimum doses of opioids were monitored.

SMILES: CN1CC[C@]23c4c5ccc(O)c4O[C@H]2[C@@H](O)C=C[C@H]3[C@H]1C5 [morphine]
- urinary retention (Algoneurodystrophy, 6-8 h): retention (1)
- urinary retention (Lumbago, 6 h): 3
- urinary retention (Lumbago, 8 h): pruritus (3), urinary retention (3)
- urinary retention (Lumboischialgia in diabetic patients (VAS 6-7)): appetite, urinary retention,
- urinary retention (Right lumboischialgia): ing (2), urinary retention (2)
- urinary retention (Secondary bone and marrow malignancies (patient at r66)): urinary retention (2)
